{
  "source": "PubChem BioAssay AID1688",
  "about": "(National Center for Advancing Translational Sciences (NCATS), 2009)",
  "note": "About 2,400 (1.1%) of roughly 220,000 compounds were called active. The inconclusive results got no clear call from the source; some entries with a clear call stand among them for comparison. The call rests on the fitted dose curve; in most records, active means well fitted inhibition curve with a large enough effect; inconclusive means small, poorly fitted or top-dose-only effect, or effect the other way; inactive means no such curve, though single readings can be large or run the other way. Where the call is inconclusive, the potency comes from a doubtful curve fit. On the % scale 0 is the no-effect control and ±100 the full control effect; potency means the concentration at half of the fitted maximal effect.",
  "data": [
    {"assay": "qHTS Multiplex Assay to Identify Dual Action Probes in a Cell Model of Huntington: Aggregate Formation (GFP); further: nearly all actives have a fitted effect of over 60% in size", "conditions": "PC12 HttQ103-GFP aggregates, Acumen cytometry, 40 h; activity change, negative = inhibition: at 46.1 µM (top of the series) unless noted", "in_short": "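Multiplexed with ATP-based cell death, this channel scores GFP aggregates in PC12 cells expressing inducible HTTex1-Q103-GFP. Induction used 100 nM tebufenozide; compounds were tested in concentration series.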", "values": [
      {"smiles": "CN(c1ccc(C(=O)NCc2cccnc2)cc1)S(C)(=O)=O", "activity change, negative = inhibition": "inactive: 10.4%"},
      {"smiles": "CC(=O)c1c(C)oc2ccc(N(C(C)=O)S(=O)(=O)c3ccc(Cl)c([N+](=O)[O-])c3)cc12", "Potency": "active: 11.2 µM"},
      {"smiles": "Cc1c(/C=N/NC(=O)c2cccnc2)c2ccccc2n1Cc1ccccc1", "Potency": "active: 10 µM"},
      {"smiles": "C=CCn1c(O)c(N=O)c2ccccc21", "activity change, negative = inhibition": "inactive: 5.16% [at 9.22 µM]"},
      {"smiles": "Cc1cccc(OCc2nc(-c3ccccn3)n[nH]2)c1", "Potency": "inconclusive: 25.1 µM [inhibitor, single point]"},
      {"smiles": "Oc1ccc2ccccc2c1C1Nc2cccc3cccc(c23)N1", "Potency": "inconclusive: 8.91 µM [activator, partial curve, poor fit]"},
      {"smiles": "CCN(CC)c1ccc(C(=O)NNC(=O)CCl)cc1", "Potency": "inconclusive: 25.1 µM [inhibitor, single point]"},
      {"smiles": "O=C1CC(c2ccco2)CC(O)=C1C=Nc1cc(Cl)ccc1Cl", "note": "(stereo unspecified)", "Potency": "inconclusive: 35.5 µM [activator, single point]"},
      {"smiles": "CCc1cc(C(=O)NNC(=S)Nc2cccc(C)c2)cs1", "Potency": "inconclusive: 14.1 µM [inhibitor, single point]"},
      {"smiles": "Fc1ccc(Cn2cccc2C2=NC(c3ccccc3)CO2)cc1", "note": "(stereo unspecified)", "Potency": "inconclusive: 2 µM [activator, partial curve]"},
      {"smiles": "C=CCc1ccc(OCC(O)CN2CCN(Cc3ccccc3)CC2)c(OC)c1", "note": "(stereo unspecified)", "Potency": "inconclusive: 1.58 µM [activator, partial curve]"},
      {"smiles": "CNC(=S)N1N=C(c2ccc(Br)cc2)CC1c1ccc(OC)cc1", "note": "(stereo unspecified)", "activity change, negative = inhibition": "inactive: 13.2%"},
      {"smiles": "C[n+]1cccc2ccc3c(c21)OC(N)=C(C#N)C3c1ccccc1", "note": "(stereo unspecified)", "Potency": "inconclusive: 5.62 µM [inhibitor, single point]"},
      {"smiles": "Cc1cc[n+](CC(=O)c2ccc(NC(=O)c3ccccc3)cc2)c2ccccc12", "Potency": "inconclusive: 8.91 µM [inhibitor, single point]"},
      {"smiles": "COc1ccccc1N(O)C1CC(=O)N(c2ccc(F)cc2)C1=O", "note": "(stereo unspecified)", "activity change, negative = inhibition": "inactive: 8.76%"},
      {"smiles": "CC(C)(C)c1ccc(C(=O)N2CCNCC2)cc1", "activity change, negative = inhibition": "inactive: 18.4%"},
      {"smiles": "CC(C)=C1C2CC2C2C(C(=O)O)C12", "note": "(stereo unspecified)", "Potency": "inconclusive: 31.6 µM [activator, single point]"},
      {"smiles": "Cc1ccc(S(=O)(=O)NCC[C@@]2(C)C3CCC2(C)C(=O)C3)cc1", "note": "(stereo partly specified)", "Potency": "inconclusive: 3.55 µM [activator, single point]"},
      {"smiles": "COCCCNC(=O)/C(C#N)=C/c1ccc(OCC(=O)O)c(OC)c1", "activity change, negative = inhibition": "inactive: -9.78%"},
      {"smiles": "Cc1cc(NS(=O)(=O)N(C)C)ccc1C(C)C", "activity change, negative = inhibition": "inactive: -9.89%"},
      {"smiles": "Cn1cc(/C=C2\\SC(=O)NC2=S)c2ccccc21", "Potency": "inconclusive: 8.91 µM [inhibitor, partial curve]"},
      {"smiles": "Oc1cccc2ccc(/C=C/c3cccs3)nc12", "Potency": "inconclusive: 35.5 µM [inhibitor, single point]"},
      {"smiles": "CCC(C(=O)NC1CCCCC1)N(Cc1cccs1)C(=O)c1snc(C(N)=O)c1N", "note": "(stereo unspecified)", "activity change, negative = inhibition": "inactive: 5.1%"},
      {"smiles": "O=C(C1=C[C@@H](C2CCCCC2)C[C@@H](OCc2ccc(CO)cc2)O1)N1CCN(Cc2ccc3c(c2)OCO3)CC1", "activity change, negative = inhibition": "inactive: 9.79% [at 9.22 µM]"},
      {"smiles": "Cc1ccc(OCc2nn3c(-c4ccco4)nnc3s2)cc1", "activity change, negative = inhibition": "inactive: -18.7%"},
      {"smiles": "O=C1CCN(CCc2ccccc2)CCN1[C@H](CSc1ccc(Br)cc1)Cc1ccccc1", "Potency": "inconclusive: 3.98 µM [inhibitor, single point]"},
      {"smiles": "COc1ccc(Br)cc1C(C[N+](=O)[O-])c1c(N)n(C)c(=O)n(C)c1=O", "note": "(stereo unspecified)", "Potency": "active: 3.98 µM"},
      {"smiles": "CCCC(=O)C1=C(O)C(c2cccc(Oc3ccccc3)c2)CCC1=O", "note": "(stereo unspecified)", "Potency": "inconclusive: 35.5 µM [inhibitor, single point]"},
      {"smiles": "N#Cc1cc(N2CCCCC2)c([N+](=O)[O-])cc1C#N", "Potency": "inconclusive: 1.26 µM [inhibitor, single point]"},
      {"smiles": "COc1c(C)cc(C(=O)C2CCCN(C(=O)c3cccc(-n4cccn4)c3)C2)cc1C", "note": "(stereo unspecified)", "activity change, negative = inhibition": "inactive: -5.65%"},
      {"smiles": "COc1ccc(-c2n[nH]c(C(F)(F)F)c2-c2cc3ccccc3o2)c(O)c1", "Potency": "active: 3.55 µM"},
      {"smiles": "CCOc1ccc(C2C([N+](=O)[O-])=C(C)N(C)C(=O)N2C)cc1OC", "note": "(stereo unspecified)", "activity change, negative = inhibition": "inactive: 22.2% [at 9.22 µM]"},
      {"smiles": "Cc1ccc(CN2CCN(CCCn3cccn3)CC2CCO)cc1", "note": "(stereo unspecified)", "Potency": "inconclusive: 1 µM [inhibitor, single point]"},
      {"smiles": "NS(=O)(=O)c1ccc(NC(=O)N2c3ccccc3Sc3ccccc32)cc1", "Potency": "inconclusive: 35.5 µM [inhibitor, single point]"},
      {"smiles": "O=C(COc1nsnc1N1CCOCC1)N1CCOCC1", "Potency": "inconclusive: 3.16 µM [inhibitor, single point]"},
      {"smiles": "COc1ccc(CCNC(=O)c2nc3ncccn3n2)cc1OC", "activity change, negative = inhibition": "inactive: -7.84%"},
      {"smiles": "CC(=O)c1cccc(NC(=O)C2CCCN2S(=O)(=O)c2cccc3nsnc23)c1", "note": "(stereo unspecified)", "Potency": "inconclusive: 5.62 µM [activator, single point]"},
      {"smiles": "O=C(Nc1ccc(C(=O)O)cc1)/C(=C/c1cccc(Br)c1)NC(=O)c1ccco1", "Potency": "inconclusive: 35.5 µM [activator, single point]"},
      {"smiles": "CCCCN=c1scc(-c2ccc3c(c2)NC(=O)CO3)n1N=C1CCCC1", "Potency": "inconclusive: 20 µM [inhibitor, single point]"},
      {"smiles": "Oc1cccc(-c2nc3ccc4ccccc4c3c3c2CCC3)c1", "Potency": "inconclusive: 25.1 µM [inhibitor, single point]"},
      {"smiles": "Cc1sc(NC(=O)Cc2ccc3c(c2)OCO3)nc1-c1ccc2c(c1)CCN2C(=O)c1ccccc1F", "Potency": "inconclusive: 1.41 µM [inhibitor, full curve, poor fit]"},
      {"smiles": "CC1CCc2c(nc3ncnn3c2Nc2ccc(OC(F)(F)F)cc2)C1", "note": "(stereo unspecified)", "Potency": "inconclusive: 15.8 µM [inhibitor, partial curve]"},
      {"smiles": "COc1ccc(CC(=O)N2N=C(C)CC2(O)C(F)(F)F)cc1OC", "note": "(stereo unspecified)", "Potency": "inconclusive: 1.12 µM [inhibitor, single point]"},
      {"smiles": "COCCNC(=O)CSc1nnc(CCCN2C(=O)c3cccc4cccc(c34)C2=O)n1-c1ccccc1", "Potency": "inconclusive: 0.562 µM [inhibitor, partial curve, poor fit]"},
      {"smiles": "N#C/C(=C\\C1=C(N2CCOCC2)C(=C\\c2ccc(Cl)cc2)/CC1)C(=O)Nc1ccccc1F", "Potency": "inconclusive: 2.82 µM [inhibitor, partial curve]"},
      {"smiles": "C=CCOc1ccccc1/C=N/NC(=O)c1ccc(Cl)cc1Cl", "activity change, negative = inhibition": "inactive: 6.01%"},
      {"smiles": "Nc1nc2ccc(O)cc2s1", "Potency": "inconclusive: 2 µM [activator, full curve, poor fit]"},
      {"smiles": "Clc1ccc(OCCN2CCN(c3ncnc4sccc34)CC2)cc1", "Potency": "inconclusive: 0.251 µM [inhibitor, full curve, poor fit]"},
      {"smiles": "COc1ccc(CC(=O)Nc2cccc(-c3nnc(-c4cccc(C)c4)o3)c2)cc1OC", "Potency": "active: 11.2 µM"},
      {"smiles": "CCCc1cc(=O)[nH]c(SCC(=O)Nc2cc(C)on2)n1", "Potency": "inconclusive: 14.1 µM [activator, partial curve]"},
      {"smiles": "COc1ccc(Cn2ccnc2CO)cc1[N+](=O)[O-]", "Potency": "inconclusive: 5.62 µM [activator, single point]"},
      {"smiles": "Cc1ccc(-c2nnc(SCc3ccccc3F)o2)cc1", "Potency": "inconclusive: 2.82 µM [inhibitor, partial curve]"},
      {"smiles": "CCc1ccccc1NC(=O)Nc1ccc(F)cc1", "Potency": "inconclusive: 6.31 µM [inhibitor, partial curve]"},
      {"smiles": "COc1cc(C(=O)Oc2ccccc2/C=N/NC(=O)c2ccc(Cl)cc2)cc(OC)c1OC", "Potency": "active: 2.82 µM"},
      {"smiles": "N#C/C(=C(/O)COc1ccc(Cl)cc1)c1nc2ccccc2s1", "Potency": "inconclusive: 12.6 µM [inhibitor, single point]"},
      {"smiles": "CCc1ccc2c(c1)C1(NN=C(c3ccc(C)cc3)S1)C(=O)N2", "note": "(stereo unspecified)", "Potency": "active: 22.4 µM"},
      {"smiles": "CCOc1ccc(NC(=O)c2ccccc2NS(=O)(=O)c2ccc(F)cc2)c([N+](=O)[O-])c1", "Potency": "active: 11.2 µM"},
      {"smiles": "COc1ccc(-n2c(C)cc(/C=C3/SC(=S)N(C)C3=O)c2C)cc1", "activity change, negative = inhibition": "inactive: 2.19%"},
      {"smiles": "Cc1cccc(N(C(=O)CCC(=O)Nc2cc(C)on2)C(C(=O)NC2CCCC2)c2ccncc2)c1", "note": "(stereo unspecified)", "Potency": "inconclusive: 5.62 µM [inhibitor, single point]"},
      {"smiles": "CCn1c2ccccc2c2cc(/C=N/n3c(-c4cc(C)[nH]n4)n[nH]c3=S)ccc21", "activity change, negative = inhibition": "inactive: -2.52% [at 9.22 µM]"},
      {"smiles": "CCN(CC)C1=CC2=CC(=C(C#N)C#N)CCC2CC1", "note": "(stereo unspecified)", "Potency": "active: 0.1 µM"},
      {"smiles": "Cc1ccn(CC(=O)N/N=C/c2cc([N+](=O)[O-])ccc2O)n1", "Potency": "active: 6.31 µM"},
      {"smiles": "CSC1=N/C(=C\\c2ccc(C)cc2)C(=O)S1", "activity change, negative = inhibition": "inactive: 6.61%"},
      {"smiles": "COc1ccc(-c2[nH]c(-c3cc(OC)c4c(c3)OCO4)nc2-c2ccccc2)cc1", "Potency": "inconclusive: 12.6 µM [inhibitor, single point]"},
      {"smiles": "Nc1ccc(CNc2ncn[nH]2)cc1", "Potency": "inconclusive: 0.447 µM [inhibitor, full curve, poor fit]"},
      {"smiles": "O=C(Nc1ccc(N2CCN(C(=O)c3ccco3)CC2)c(Cl)c1)c1cc2ccccc2o1", "Potency": "inconclusive: 35.5 µM [inhibitor, single point]"},
      {"smiles": "CCS(=O)(=O)Nc1cccc(C2=NN(C(C)=O)C(c3cccs3)C2)c1", "note": "(stereo unspecified)", "Potency": "inconclusive: 7.94 µM [activator, partial curve]"},
      {"smiles": "COc1ccc(CCN(C)S(=O)(=O)c2ccc(Cl)nc2)cc1OC", "activity change, negative = inhibition": "inactive: -15.8%"},
      {"smiles": "Cc1c(N=Cc2c(O)n(Cc3ccco3)c(=O)c3ccccc23)c(=O)n(-c2ccccc2)n1C", "Potency": "inconclusive: 0.562 µM [inhibitor, full curve, poor fit]"},
      {"smiles": "COc1ccc(-c2noc(CSc3nc(N)c(-c4ccccc4)c(=O)[nH]3)n2)cc1OC", "activity change, negative = inhibition": "inactive: 5.68%"},
      {"smiles": "CC(=O)Nc1cccc2c1C(=O)N(c1ccccc1OC(C)=O)C2=O", "activity change, negative = inhibition": "inactive: -1.11% [at 9.22 µM]"}
    ]}
  ]
}
